In PubChem BioAssay AID662 (National Center for Advancing Translational Sciences (NCATS), 2007):
Several values for one entry are separate records, joined by “and”; a condition that tells them apart may be missing. Identical values can stand only once. The list shows a part of the results. Shown are side measurements of this screen, not its main read-out; they come without a call. The list favours compounds with an active or inconclusive main result. Words in brackets tell the shape of the fitted curve; partial curves, single points and poor fits give uncertain potencies.

Experiment: Cell signaling CRE-BLA (Fsk stim)
Details: CHO CRE-bla reporter (cAMP response element driving beta-lactamase), forskolin EC10, beta-lactamase ratio; measured here: 460 nm blue channel
Method in brief: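 Using CellSensor CRE-bla CHO cells in Opti-MEM with 0.5% dialyzed FBS, compounds were titrated with EC10 NKH 477 for 3 h at 37 °C. CCF4 ratio (460/530 nm) gave %Activity; AC50 derived.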

Compound | AC50
CCCC/C=C/[C@@H](NP(=O)(c1ccccc1)c1ccccc1)c1ccccc1OC | 25.1 µM [falling, single point]
O=C(c1cc2c(s1)CCCC2)N1CCC2(CC1)OCCO2 | 10 µM [falling, partial curve]
Oc1ccc2c3c1O[C@H]1c4oc5ccccc5c4C[C@]4(O)[C@H](C2)N(CC2CC2)CC[C@@]314 | 31.6 µM [falling, single point]
COC(=O)CSC1=NP(=S)(SCC(=O)OC)N2CCCC2=C1C#N (stereo not given) | 0.0631 µM [falling, full curve]
NCCc1c[nH]c2ccc(C(N)=O)cc12 | 31.6 µM [falling, partial curve, poor fit]
Oc1c(Cl)c(Cl)c(Cl)c(Cl)c1Cl (tested in a mixture with another compound) | 3.16 µM [rising, single point]
CC(C)[C@]1(NC(=O)[C@H]2C=C3c4cccc5[nH]cc(c45)C[C@H]3N(C)C2)O[C@@]2(O)[C@H]3CCCN3C(=O)[C@H](Cc3ccccc3)N2C1=O | 7.94 µM [rising, partial curve, poor fit]
C=C1[C@@H](O)C2C=CC[C@H](C)C(=O)[C@@](C)(O)C=C[C@@H](OC(C)=O)[C@@]23C(=O)N[C@H](Cc2ccccc2)[C@@H]3[C@@H]1C (stereo not given in full) | 25.1 µM [rising, partial curve, poor fit]
N#C/C(=C\c1ccc(O)c(O)c1)C(N)=S | 25.1 µM [falling, partial curve] and 20 µM [falling, partial curve, poor fit]
O=C1C2(Cl)C3(Cl)C4(Cl)C(Cl)(Cl)C5(Cl)C3(Cl)C1(Cl)C5(Cl)C24Cl (stereo not given) | 15.8 µM [falling, partial curve] and 12.6 µM [falling, partial curve, poor fit]
CCN(CC)c1ccc(N=Cc2c(O)n(CCC3=CCCCC3)c(=O)[nH]c2=O)cc1 | 0.158 µM [rising, full curve]
N#C/C=C/C#N | 25.1 µM [falling, single point]
O=C(CNS(=O)(=O)c1ccc(Br)s1)N1CCC2(CC1)OCCO2 | 0.0126 µM [falling, full curve, poor fit]
O=C(NC1(C(F)(F)F)Oc2ccccc2O1)N1CCC2(CC1)OCCO2 | 5.01 µM [falling, full curve, poor fit]
O=C1C2CCN(CC2)C1(CO)CO | 25.1 µM [falling, partial curve, poor fit]
CCCCn1c(O)c(C(C)=Nc2ccc(OCC)cc2)c(=O)[nH]c1=O | 15.8 µM [rising, single point]
CCCCn1c(O)c(C(C)=NC(Cc2c[nH]c3ccccc23)C(=O)OC)c(=O)[nH]c1=O (stereo not given) | 3.16 µM [falling, full curve]
O=C1C(Cl)=C(Cl)C(=O)C(Cl)=C1Cl | 25.1 µM [rising, single point]
CCOc1cc(-c2nc3c(C)cccn3c2NCC2CCCO2)ccc1O (stereo not given) | 12.6 µM [rising, partial curve]
CCOC(=O)c1c(N)n(Cc2ccc(OC)cc2)c2nc3ccccc3nc12 | 10 µM [rising, partial curve]
COc1cc2c(cc1OC)-c1c(OC)c(OC)cc3c1C(C2)N(C)CC3 (stereo not given) | 10 µM [rising, partial curve]
CC1(C)CC(=O)C(C2(O)C(=O)NC(=O)NC2=O)=C(O)C1 | 2.51 µM [falling, partial curve, poor fit]
CCC(=O)O[C@H]1CC[C@H]2[C@@H]3CCC4=CC(=O)CC[C@]4(C)[C@H]3CC[C@]12C | 12.6 µM [rising, single point]
CC(=O)c1c(O)n(C2CCCCCC2)c(=O)[nH]c1=O | 25.1 µM [falling, single point]
Cc1nc2cc(C(F)(F)F)ccc2n1C1CCN(Cc2nnnn2Cc2cccs2)CC1 | 15.8 µM [rising, partial curve]

Compound | AC50
COc1ccc(-n2c(=O)[nH]c3ccccc3c2=O)c(OC)c1 | 20 µM [falling, single point]
CCOC(=O)C1=C(N)OC(C)=C(C(=O)OCCOC)C12C(=O)Nc1ccccc12 (stereo not given) | 0.0794 µM [falling, full curve]
O=C1NC(=O)C2(Cc3ccccc3N3CCCC32)C(=O)N1c1ccccc1 (stereo not given) | 0.251 µM [rising, single point]
COc1cc2c(cc1O)CCN[C@H]2C | 25.1 µM [rising, partial curve]
O=C(O)CN1C(=O)CN=C(c2ccccn2)c2cc(Cl)ccc21 | 5.01 µM [rising, single point]
CC(C)OCCCNC(=O)c1c(N)n(Cc2cccs2)c2nc3ccccc3nc12 | 10 µM [rising, partial curve]
Cc1nc2ncnn2c(C)c1CCC(=O)N1CCC2(CC1)OCCO2 | 0.00398 µM [falling, full curve, poor fit]
CCC(C)NC(=O)c1c(N)n(CC2CCCO2)c2nc3ccccc3nc12 (stereo not given) | 12.6 µM [rising, partial curve]
COC(=O)C(C)Oc1cc(C)cc2oc(=O)c3c(c12)CCCC3 (stereo not given) | 10 µM [rising, partial curve]
COc1ccc(CCNC(=O)c2c(N)n(CCN3CCOCC3)c3nc4ccccc4nc23)cc1 | 5.01 µM [rising, partial curve]
COC(=O)C1C2c3ccccc3OC1(C)N=c1s/c(=C/c3cn(C)nc3C)c(=O)n12 (stereo not given) | 25.1 µM [rising, single point]
Cn1c(C(=O)N2CCC(C(=O)N3CCC4(CC3)OCCO4)CC2)cc2sccc21 | 2.51 µM [rising, partial curve]
CCn1cnc2c(Nc3cccc(Cl)c3)nc(N[C@@H]3CCCC[C@H]3N)nc21 | 10 µM [falling, partial curve]
CC1CCCCN1CC(=O)c1ccc2cc[nH]c2c1 (stereo not given) | 3.98 µM [falling, full curve]
CCC(=NCCC1=CCCCC1)c1c(O)[nH]c(=O)[nH]c1=O | 12.6 µM [rising, partial curve]
CC(C)CCn1c(N)c(C(=O)OCC2CCCO2)c2nc3ccccc3nc21 (stereo not given) | 3.98 µM [rising, full curve]
Cn1c(O)c(C=NC2CC3CCC2(C)C3(C)C)c(=O)[nH]c1=O (stereo not given) | 10 µM [rising, single point]
COc1ccc(C(c2ccc(OC)cc2)C(Cl)(Cl)Cl)cc1 | 31.6 µM [falling, single point]
CCOC(=O)c1c(C)n(Cc2ccccc2)c2ccc(OCC(O)Cn3nc(C)nc3C)cc12 (stereo not given) | 1 µM [rising, full curve, poor fit]
CCOc1cc(C=O)ccc1O | 31.6 µM [rising, partial curve]
Cc1cc2c(C(F)(F)F)cc(=O)oc2c2c1NCCC2 | 3.98 µM [rising, partial curve]
O=c1c2ccccc2nc(-c2ccco2)n1-c1cccnc1 | 20 µM [rising, single point]
CC1=NN=C(c2ccc(N)cc2)c2cc3c(cc2C1)OCO3 | 31.6 µM [falling, single point]
CN1C(=O)C(Cc2cccc3ccccc23)C(=O)N(C)C1=O | 0.398 µM [rising, partial curve, poor fit]
CCCCCn1c(=O)c(C(=O)NCc2ccccn2)c(O)c2ccccc21 | 12.6 µM [rising, partial curve]

Compound | AC50
CN1C(=O)N(C)C(=O)C2(Cc3cc(N)ccc3N3CCN(c4ccccc4F)CC32)C1=O (stereo not given) | 5.01 µM [falling, partial curve]
C[C@]12C/C(=C/O)C(=O)C[C@@H]1CC[C@@H]1[C@@H]2CC[C@@]2(C)[C@H]1CC[C@]2(C)O | 12.6 µM [rising, partial curve]
CC12CCCCC1N(O)CN2O (stereo not given) | 0.158 µM [falling, full curve]
COc1cccc(OC)c1C1=NCC(=O)Nc2c1oc1ccc(Br)cc21 | 7.94 µM [rising, partial curve]
CCCCCCN=C(C)c1c(O)n(CCCC)c(=O)[nH]c1=O | 2 µM [rising, full curve]
CC(C)(C)c1nc(N2CCN(C(=O)c3ccco3)CC2)c2nnn(Cc3ccccc3Cl)c2n1 | 25.1 µM [falling, single point]
N[C@@H](Cc1c[nH]c2ccccc12)c1nnc(SCc2ccc(Cl)cc2)o1 | 2.51 µM [falling, full curve]
COCCCn1c(N)c(C(=O)OCCOC)c2nc3ccccc3nc21 | 10 µM [rising, partial curve]
Oc1ccc2c3c1O[C@H]1c4[nH]c5ccccc5c4C[C@]4(O)[C@H](C2)N(CC2CC2)CC[C@@]314 | 15.8 µM [falling, partial curve, poor fit]
CC(=NCCO)c1c(O)n(C2CCCCC2)c(=O)[nH]c1=O | 25.1 µM [rising, single point]
CC(C)(C)c1cc(O)ccc1O | 20 µM [falling, single point] and 1 µM [falling, full curve, poor fit]
COC[C@H]1OC(=O)c2coc3c2[C@@]1(C)C1=C(C3=O)[C@H]2CCC(=O)[C@@]2(C)C[C@H]1OC(C)=O | 0.0316 µM [falling, full curve, poor fit]
O=C1N(CN2CCOCC2)c2ccccc2C1(O)c1c[nH]c2ccccc12 (stereo not given) | 25.1 µM [falling, single point]
CCOC(=O)c1c(N)n(Cc2ccccc2)c2nc3ccccc3nc12 | 12.6 µM [rising, partial curve]
CC(=O)O[C@@H]1CN2CCC1CC2 | 31.6 µM [falling, single point]
CCC(=NCCCN1CCOCC1)c1c(O)n(Cc2ccccc2)c(=O)[nH]c1=O | 1.58 µM [falling, partial curve]
COC(=O)[C@H]1C(=O)[C@H](C(=O)OC)[C@@H]2CC[C@H]1N2C | 3.98 µM [rising, single point]
COCCOC(=O)c1c(N)n(Cc2ccccc2)c2nc3ccccc3nc12 | 12.6 µM [rising, single point]
Cc1ccc(C)c(NC2=NCCCS2)c1 | 5.01 µM [falling, single point]
COC(=O)c1c(N)n(Cc2ccc(OC)cc2)c2nc3ccccc3nc12 | 10 µM [rising, partial curve]
NCCCP(=O)(O)CCc1ccccc1 | 25.1 µM [rising, single point]
CC(=NCc1ccc2c(c1)OCO2)c1c(O)n(C)c(=O)n(C)c1=O | 1 µM [rising, full curve, poor fit]
COc1cc2c(cc1OC)-c1c(OC)c(OC)c(CO)c3c1[C@H](C2)N(C)CC3 | 2 µM [rising, partial curve, poor fit]
CC(=O)N1CCN(c2ccc(N=Cc3c(O)n(-c4ccc(Cl)cc4)c(=O)[nH]c3=O)cc2)CC1 | 1 µM [rising, full curve, poor fit]
CCc1nc2ccccc2c(=O)n1-c1cccc(OC)c1 | 12.6 µM [rising, single point]
